Assay [1] addresses endogenous murine MMP3 in conditioned medium of control SCp2 cells (mouse) (UniProt P28862). In words: IP with rabbit anti-HSP90β antibody from CM of control SCp2 cells, blot for MMP3.
For assay [2] the target is unchanged. The experiment in a line: reverse co-IP of HSP90β protein complexes from CM of control SCp2 cells, Western blot. For orientation: A western blot detects proteins with antibodies after separation by electrophoresis.

Sequences of proteins named here, by UniProt entry; tags and fusion partners are left off. Residues count along the entry.
UniProt P28862, residues 18-477: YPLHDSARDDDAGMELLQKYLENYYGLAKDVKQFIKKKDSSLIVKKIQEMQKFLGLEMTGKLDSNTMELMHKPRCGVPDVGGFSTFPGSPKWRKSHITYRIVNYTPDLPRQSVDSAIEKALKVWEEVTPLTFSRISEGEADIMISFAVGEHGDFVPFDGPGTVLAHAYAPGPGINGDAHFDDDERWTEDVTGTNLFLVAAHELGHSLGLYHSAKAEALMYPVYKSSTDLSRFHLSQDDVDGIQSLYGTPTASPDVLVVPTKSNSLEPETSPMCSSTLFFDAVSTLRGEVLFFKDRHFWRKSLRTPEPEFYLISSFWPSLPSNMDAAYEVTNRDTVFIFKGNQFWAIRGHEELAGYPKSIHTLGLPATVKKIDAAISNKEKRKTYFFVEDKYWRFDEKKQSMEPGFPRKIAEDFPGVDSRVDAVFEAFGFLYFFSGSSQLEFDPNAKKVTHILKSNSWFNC
UniProt P11499, residues 2-724: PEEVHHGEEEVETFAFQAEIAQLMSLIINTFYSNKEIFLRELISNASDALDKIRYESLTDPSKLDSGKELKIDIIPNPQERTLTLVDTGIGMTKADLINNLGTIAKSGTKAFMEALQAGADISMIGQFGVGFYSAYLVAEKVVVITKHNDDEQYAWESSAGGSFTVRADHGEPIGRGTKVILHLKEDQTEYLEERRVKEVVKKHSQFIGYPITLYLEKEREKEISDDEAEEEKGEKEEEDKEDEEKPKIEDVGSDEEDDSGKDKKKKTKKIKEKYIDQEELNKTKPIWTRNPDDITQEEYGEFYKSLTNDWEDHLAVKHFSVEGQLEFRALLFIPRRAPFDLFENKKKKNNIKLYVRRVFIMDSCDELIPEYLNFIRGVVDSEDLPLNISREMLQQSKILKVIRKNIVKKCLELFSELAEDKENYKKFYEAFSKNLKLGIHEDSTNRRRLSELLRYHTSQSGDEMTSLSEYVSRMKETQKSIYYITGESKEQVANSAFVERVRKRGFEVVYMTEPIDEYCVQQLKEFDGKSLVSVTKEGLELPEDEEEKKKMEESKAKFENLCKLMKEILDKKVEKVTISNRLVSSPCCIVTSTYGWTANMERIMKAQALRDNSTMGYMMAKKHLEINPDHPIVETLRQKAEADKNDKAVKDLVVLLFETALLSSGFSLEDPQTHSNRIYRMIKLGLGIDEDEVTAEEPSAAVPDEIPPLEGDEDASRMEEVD

This passage reports binding results from patent publication US20150079071A1, “NON-CATALYTIC DOMAIN TARGETS IN MATRIX METALLOPROTEASE PROTEINS FOR CANCER THERAPIES” (THE REGENTS OF THE UNIVERSITY OF CALIFORNIA, priority 2012, published 2015).

These are yes or no findings as the source states them, for the method shown. For some assays here: Binding seen in cells or lysates may run through a third protein. Some entries that bind do so weakly or less than the wild type.

With “heat-shock protein 90β (HSP90β), endogenous, in conditioned medium of SCp2 cells (from UniProt P11499 2-724)”, the binding result in assay [1] and in assay [2] was “binds” in each case.
